Earlier results as cited in patent publication US20230364033A1, “COMPOUNDS FOR TREATING VIRUS INFECTIONS” (Meletios Therapeutics, priority 2020, published 2023).
At least one compound was matched to its structure with a doubt left.

Key:
COVID-19 [1] = conditions: human, in vivo; cited from earlier work
COVID-19 [2] = conditions: in vivo; cited from earlier work

For `CCC(CC)COC(=O)[C@H](C)N[P@](=O)(OC[C@H]1O[C@@](C#N)(c2ccc3c(N)ncnn23)[C@H](O)[C@@H]1O)Oc1ccccc1` [Remdesivir, remdesivir], the “Faster time to recovery than placebo” value (COVID-19 [1]) is listed as 31%, the “Median time to recovery” value (COVID-19 [1]) is listed as 11 days and the Mortality rate (COVID-19 [1]) is listed as 8.0%. For the same compound, the “Time to clinical improvement” value (COVID-19 [2]) was “not associated with a difference”.
